The assay deals with ACTN2-BioID2 fusion protein (α-actinin-2 fused to BioID2-HA) (UniProt Q9JI91). Description: proximity labelling.

By UniProt entry, the sequences of proteins in these tests, tags left out.
UniProt Q9JI91, whole entry: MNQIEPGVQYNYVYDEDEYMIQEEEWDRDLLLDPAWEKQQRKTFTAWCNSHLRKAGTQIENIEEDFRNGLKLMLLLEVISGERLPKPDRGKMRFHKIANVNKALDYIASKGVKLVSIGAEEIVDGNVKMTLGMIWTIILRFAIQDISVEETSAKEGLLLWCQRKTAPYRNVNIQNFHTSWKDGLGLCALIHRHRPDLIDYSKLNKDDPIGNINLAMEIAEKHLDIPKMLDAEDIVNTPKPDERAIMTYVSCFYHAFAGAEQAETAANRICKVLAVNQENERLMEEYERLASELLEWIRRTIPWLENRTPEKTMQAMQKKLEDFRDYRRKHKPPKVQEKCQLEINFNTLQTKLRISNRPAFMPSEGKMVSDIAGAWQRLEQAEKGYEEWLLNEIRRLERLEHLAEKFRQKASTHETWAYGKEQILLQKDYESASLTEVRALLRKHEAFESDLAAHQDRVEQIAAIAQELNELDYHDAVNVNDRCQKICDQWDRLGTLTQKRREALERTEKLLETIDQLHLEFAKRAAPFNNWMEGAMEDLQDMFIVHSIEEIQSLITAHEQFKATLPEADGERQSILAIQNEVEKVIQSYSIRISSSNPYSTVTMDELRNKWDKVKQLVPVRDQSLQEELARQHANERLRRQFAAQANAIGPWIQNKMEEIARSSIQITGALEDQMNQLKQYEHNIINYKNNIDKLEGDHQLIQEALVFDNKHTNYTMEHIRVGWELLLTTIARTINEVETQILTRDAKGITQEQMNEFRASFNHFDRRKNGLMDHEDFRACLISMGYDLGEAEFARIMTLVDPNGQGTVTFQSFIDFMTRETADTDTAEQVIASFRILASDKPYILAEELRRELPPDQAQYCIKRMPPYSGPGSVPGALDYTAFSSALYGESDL

These are yes or no findings as the source states them, for the method shown. Binding seen in cells or lysates may run through a third protein. A yes stands for co-enrichment or nearness to the bait. Other partners may have been found.

As for DPYSL3 (from UniProt Q62188 1-570), the binding entry is “binds”.

In the case of PCBP1 (from UniProt P60335 1-356), the binding result is reported as “binds”. Next, VCP (from UniProt Q01853 1-806): “binds”.

B1: palmdelphin (PALMD), endogenous (protein, UniProt Q9JHU2 1-551)
chain: MEEAELVKGRLQAITDKRKIQEEISQKRLKIEEEKLKHQHLKKKALREKWLLDGIGSGKEHEEMRKQNQQDQHQTQVLEQSILRLEKEIQDLEKAELQISANEEAILKKLKSIEKTTEDIIRSVKVEKEENPEESIEDIYANIPDLPSSYIPSRLRKERNEGPDDEQNRKALYAMEIKVEKDLKTGESVVLSSIPLPSDDFKSTGIKVYEDRQKSVYAVSSNQNTTYNGTDGLAPVEVEDLLRQASERNSKSPTEYHEPVYANPFCRPVTPQRERVISPGPNFQERIMMKTNGLGNHANESAHNMTDGLSERRSNGPTHTSPTRPTPQPRSMVQQVEEMVHTQQKRMASPWEESSNRQNEHEVSPRMELSPSRASPGKSGPQCSSPTCQEETEDVRYNIVHSLPSDVDDTEPVTMIFMGYQQADDNEEEKKLLTGYDGVIHAELVVIDDEAEDNEGQTERPSYHPVAPYNQVYQPPKPTPLPRKRAEVRPYENTNHKSPHKNSISLKEQEERLGSPARHSPLDVPVAGDGTEDPSLTALRIRMAKLGKKVI
In the case of B1, the binding result is given as “binds”.

B2: PEBP1 (protein, UniProt P70296 1-187)
chain: MAADISQWAGPLCLQEVDEPPQHALRVDYAGVTVDELGKVLTPTQVMNRPSSISWDGLDPGKLYTLVLTDPDAPSRKDPKFREWHHFLVVNMKGNDISSGTVLSDYVGSGPPSGTGLHRYVWLVYEQEQPLSCDEPILSNKSGDNRGKFKVETFRKKYNLGAPVAGTCYQAEWDDYVPKLYEQLSGK
B2: the binding entry is “binds”.

These data come from article doi:10.1101/2023.12.06.570334.
